These are yes or no findings as the source states them, for the method shown. Some binding calls cover weakened binding; strength is not graded here. Where a sequence is shown, tags or fusion partners need not be part of it.

Chains of the proteins cited; added tags and fusions are not shown. Lines headed by an entry give the natural chain unless they say otherwise; changes in a name come on top.
UniProt P41220: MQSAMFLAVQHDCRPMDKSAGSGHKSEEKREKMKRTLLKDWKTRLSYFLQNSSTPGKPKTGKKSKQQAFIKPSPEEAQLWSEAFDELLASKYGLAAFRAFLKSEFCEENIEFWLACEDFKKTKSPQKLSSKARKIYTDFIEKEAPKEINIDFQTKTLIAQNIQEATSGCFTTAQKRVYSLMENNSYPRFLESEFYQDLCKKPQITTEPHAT

One assay deals with T1, RGS4^1–11 peptide.
T1 sequence (peptide): MCKGLAALPAT
Nature of the assay: far-Western, overlay or dot blot; dot blot: peptides in PBS spotted at increasing amounts on PVDF and air-dried; 2 μg/ml purified FLAG-FBXO44^FBA in blocking buffer overnight at 4 °C; detected with anti-FLAG; both purified.

The next assay deals with T2, RGS2^5–16 peptide D12R (UniProt P41220).
T2 sequence (peptide): MFLAVQHRCRPM
Briefly: peptide or protein array; custom PEPperPRINT peptide microarray (each position of RGS2^5–16 substituted by every other amino acid; C-terminal truncations); 2 μg/ml purified FLAG-FBXO44^FBA in staining buffer (PBS, 0.005% Tween, pH 7.4, 10% Rockland blocking buffer) overnight at 4 °C; anti-FLAG DyLight800; signal normalised to the original residue; both purified.

Another assay addresses T3, RGS2^5–16 peptide P15R (UniProt P41220).
T3 sequence (peptide): MFLAVQHDCRRM
Described as above.

Assay [1] deals with T4, RGS2^5–16 peptide, Asp^12 to Gln (UniProt P41220).
T4 sequence (peptide): MFLAVQHQCRPM
The assay is described as above.

Assay [2] has as its target T5, RGS2^5–16 peptide, Asp^12 to Ile (UniProt P41220).
T5 sequence (peptide): MFLAVQHICRPM
The assay is described as above.

The target in assay [3] is T6, RGS2^5–16 peptide, Asp^12 to Val (UniProt P41220).
T6 sequence (peptide): MFLAVQHVCRPM
The assay is described as above.

The target of assay [4] is T7, RGS2^5–16 peptide, Phe^6 to Asp (UniProt P41220).
T7 sequence (peptide): MDLAVQHDCRPM
The description is as above.

The target in assay [5] is T8, RGS2^5–16 peptide, Pro^15 to Ala (UniProt P41220).
T8 sequence (peptide): MFLAVQHDCRAM
The assay is described as above.

B1: FLAG-tagged FBXO44 FBA domain (FBXO44^FBA) (domain or fragment, UniProt Q9H4M3-1 71-252)
chain: FYFLRSLHRNLLHNPCAEEGFEFWSLDVNGGDEWKVEDLSRDQRKEFPNDQVKKYFVTSYYTCLKSQVVDLKAEGYWEELMDTTRPDIEVKDWFAARPDCGSKYQLCVQLLSSAHAPLGTFQPDPATIQQKSDAKWREVSHTFSNYPPGVRYIWFQHGGVDTHYWAGWYGPRVTNSSITIGP
For the molecule B1, the binding entry is reported as “no binding (tested: 2 μg/ml FLAG-FBXO44^FBA)” with RGS4^1–11 peptide; “binds” with RGS2^5–16 peptide D12R; “binds” with RGS2^5–16 peptide P15R; “binds” in assay [1]; “binds” in assay [2]; “binds” in assay [3]. The binding entry in assay [4] and in assay [5] was “binds” in each case.
